In US9572820B2, “Methods of treating autophagy-associated disorders and related pharmaceutical compositions, diagnostics, screening techniques and kits” (priority 2011, dated 2017):
Like-named read-outs stand apart in the source and are kept apart here.

System: LC3-GFP/RFP HeLa cells
Experiment: High-content imaging screen of LC3-GFP/RFP puncta (Cellomics ArrayScan)
Format: cell-based

SMILES | modulation of autophagy (agonist/inducer or antagonist/inhibitor) (LC3-GFP/RFP puncta per cell, 4 hours incubation, hit = 3 standard deviations above or below mean of negative control wells) | modulation of autophagy (agonist/inducer or antagonist/inhibitor)
CCN(CC)CCOC(=O)C1(C2CCCCC2)CCCCC1 [dicyclomine] | agonists or inducers of autophagy | –
CC(C)n1nc(-c2cc3cc(O)ccc3[nH]2)c2c(N)ncnc21 [pp242] | – | stronger inducer of autophagy
